Source: PubChem BioAssay AID2101 (National Center for Advancing Translational Sciences (NCATS), 2009)
Screen size: about 330,000 compounds; about 300 (0.091%) were called active. These results got no clear call from the source, so the numbers are uncertain. Calls follow the shape of the dose curve; as a rule, active = well fitted inhibition curve with a large enough effect; inconclusive = small, poorly fitted or top-dose-only effect, or effect the other way, or another doubt; inactive = no such curve, though single readings can be large or run the other way.
Potency is read from the fitted curve at half-maximal effect.

The compounds below were run against Lysosomal acid glucosylceramidase (Homo sapiens) (UniProt P04062) (assay: qHTS Assay for Inhibitors and Activators of N370S glucocerebrosidase as a Potential Chaperone Treatment of Gaucher Disease). Conditions: N370S GC spleen homogenate, 4MU-glucoside fluorescence.
Text: NIH Chemical Genomics Center [NCGC]
NIH Molecular Libraries Probe Production Centers Network [MLPCN]
Assay Submitter (PI): Wei Zheng
Glucocerebrosidase (GC) catalyzes the hydrolysis of beta-glucocerebroside to glucose and ceramide in lysosomes. Mutations in the glucocerebrosidase gene result in Gaucher disease, an autosomal recessive lysosomal storage disorder. Many of the mutations encountered in patients with Gaucher disease are missense alterations that may cause misfolding, decreased stability and/or mistrafficking of this lysosomal protein. […] These inhibitors include iminosugar analogs and three non-iminosugar inhibitors identified from a previous HTS of 62,000 compounds with the wild type recombinant enzyme. […]
This is a fluorogenic enzyme assay with 4-methylumbelliferyl-beta-D-glucopyranoside as the substrate and N370S glucocerebrosidase from human spleen homogenate as the enzyme preparation. Upon the hydrolysis of this fluorogenic substrate, the resulting product, […] which can be detected by a standard fluorescence plate reader. […] The AC50 values were determined from concentration-response data modeled with the standard Hill equation. […]
(6) Detect the assay plate in a ViewLux plate reader (PerkinElmer) with Ex=365 nm and Em=440nm. […]
For `Cc1ccc(OCC(C)C)c(CN(CCCl)CCCl)c1`, the Potency was inconclusive: 39.8 µM.
In the case of `CN1CCC(Nc2ccc(F)c(Cl)c2)CC1`, the Potency is reported as inconclusive: 0.1 µM.
